No constants are given. Whether binding was seen depends on the method and setting. Some entries that bind do so weakly or less than the wild type. Tags and fused reporters may be left off the sequences shown.
Legend:
Assay in all cases: co-purification of co-expressed proteins (Ni-NTA, anti-Flag affinity, gel filtration); co-expression in E. coli; extract on nickel-NTA agarose (TetR-(His)7), eluate on anti-Flag M2 gel eluted with 3x Flag peptide, then two S200GL 10/300 columns in series; complexes homogeneous and monodisperse
[1] = biological target: TetR-Sth1(301-1097)-Flag F945A, as in the SAR complex (S. cerevisiae) (UniProt P32597)
[2] = biological target: TetR-Sth1(301-1097)-Flag H687A, as in the SAR complex (S. cerevisiae) (UniProt P32597)
[3] = biological target: TetR-Sth1(301-1097)-Flag Q954A, as in the SAR complex (S. cerevisiae) (UniProt P32597)
[4] = biological target: TetR-Sth1(301-1097)-Flag R684A, as in the SAR complex (S. cerevisiae) (UniProt P32597)
[5] = biological target: TetR-Sth1(301-1097)-Flag, wild type, as in the SAR complex (S. cerevisiae) (UniProt P32597)

Sequences of proteins named here, by UniProt entry; tags and fusion partners are left off. A change or cut given only in a name is not applied to a line headed by its entry. A line that says so, or that is headed by a name, gives the form on record, which may keep a tag or linker. Residues count along the entry.
TetR-Sth1(301-1097)-Flag, wild type, as in the SAR complex (P32597, residues 301-1097): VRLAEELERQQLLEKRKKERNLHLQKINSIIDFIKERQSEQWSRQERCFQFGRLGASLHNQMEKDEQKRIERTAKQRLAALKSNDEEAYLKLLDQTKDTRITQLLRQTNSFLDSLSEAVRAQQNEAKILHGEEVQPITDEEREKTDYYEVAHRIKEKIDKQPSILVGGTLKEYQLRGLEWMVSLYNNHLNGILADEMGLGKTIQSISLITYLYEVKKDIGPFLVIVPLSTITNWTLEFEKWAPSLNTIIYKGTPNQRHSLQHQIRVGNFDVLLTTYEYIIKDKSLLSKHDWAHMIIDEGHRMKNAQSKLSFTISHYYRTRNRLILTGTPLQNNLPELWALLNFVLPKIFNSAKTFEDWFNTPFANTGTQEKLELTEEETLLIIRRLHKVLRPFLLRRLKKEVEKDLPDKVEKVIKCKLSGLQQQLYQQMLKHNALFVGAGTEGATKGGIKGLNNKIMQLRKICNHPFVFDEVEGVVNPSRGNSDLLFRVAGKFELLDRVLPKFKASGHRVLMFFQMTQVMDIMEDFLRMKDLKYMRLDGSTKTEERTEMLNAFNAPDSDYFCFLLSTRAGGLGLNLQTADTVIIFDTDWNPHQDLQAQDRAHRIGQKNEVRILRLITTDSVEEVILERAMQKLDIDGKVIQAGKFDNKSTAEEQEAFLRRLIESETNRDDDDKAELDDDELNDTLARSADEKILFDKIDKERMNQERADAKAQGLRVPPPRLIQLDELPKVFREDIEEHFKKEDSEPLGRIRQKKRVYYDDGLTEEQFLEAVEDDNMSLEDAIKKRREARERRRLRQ
TetR-Sth1(301-1097)-Flag F945A, as in the SAR complex (P32597, form named): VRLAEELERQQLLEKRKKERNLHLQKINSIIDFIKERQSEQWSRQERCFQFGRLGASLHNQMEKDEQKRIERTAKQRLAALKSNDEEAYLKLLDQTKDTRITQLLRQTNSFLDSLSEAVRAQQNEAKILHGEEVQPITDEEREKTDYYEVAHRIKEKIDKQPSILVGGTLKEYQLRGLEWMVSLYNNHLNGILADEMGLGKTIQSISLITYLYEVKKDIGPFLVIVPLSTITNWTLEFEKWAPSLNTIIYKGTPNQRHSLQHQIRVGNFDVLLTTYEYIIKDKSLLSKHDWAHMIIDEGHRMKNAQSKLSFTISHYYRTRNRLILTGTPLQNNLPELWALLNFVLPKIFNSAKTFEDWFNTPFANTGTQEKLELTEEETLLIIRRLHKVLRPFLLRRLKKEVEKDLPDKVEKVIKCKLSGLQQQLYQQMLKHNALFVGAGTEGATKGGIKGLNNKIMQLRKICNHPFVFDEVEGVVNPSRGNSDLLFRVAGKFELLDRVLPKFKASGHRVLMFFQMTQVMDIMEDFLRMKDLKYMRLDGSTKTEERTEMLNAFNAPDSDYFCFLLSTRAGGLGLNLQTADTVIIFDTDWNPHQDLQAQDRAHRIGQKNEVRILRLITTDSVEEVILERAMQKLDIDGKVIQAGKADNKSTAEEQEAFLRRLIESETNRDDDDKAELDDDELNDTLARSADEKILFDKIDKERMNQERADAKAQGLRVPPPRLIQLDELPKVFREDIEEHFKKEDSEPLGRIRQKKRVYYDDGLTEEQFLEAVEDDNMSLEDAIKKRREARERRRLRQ
TetR-Sth1(301-1097)-Flag H687A, as in the SAR complex (P32597, form named): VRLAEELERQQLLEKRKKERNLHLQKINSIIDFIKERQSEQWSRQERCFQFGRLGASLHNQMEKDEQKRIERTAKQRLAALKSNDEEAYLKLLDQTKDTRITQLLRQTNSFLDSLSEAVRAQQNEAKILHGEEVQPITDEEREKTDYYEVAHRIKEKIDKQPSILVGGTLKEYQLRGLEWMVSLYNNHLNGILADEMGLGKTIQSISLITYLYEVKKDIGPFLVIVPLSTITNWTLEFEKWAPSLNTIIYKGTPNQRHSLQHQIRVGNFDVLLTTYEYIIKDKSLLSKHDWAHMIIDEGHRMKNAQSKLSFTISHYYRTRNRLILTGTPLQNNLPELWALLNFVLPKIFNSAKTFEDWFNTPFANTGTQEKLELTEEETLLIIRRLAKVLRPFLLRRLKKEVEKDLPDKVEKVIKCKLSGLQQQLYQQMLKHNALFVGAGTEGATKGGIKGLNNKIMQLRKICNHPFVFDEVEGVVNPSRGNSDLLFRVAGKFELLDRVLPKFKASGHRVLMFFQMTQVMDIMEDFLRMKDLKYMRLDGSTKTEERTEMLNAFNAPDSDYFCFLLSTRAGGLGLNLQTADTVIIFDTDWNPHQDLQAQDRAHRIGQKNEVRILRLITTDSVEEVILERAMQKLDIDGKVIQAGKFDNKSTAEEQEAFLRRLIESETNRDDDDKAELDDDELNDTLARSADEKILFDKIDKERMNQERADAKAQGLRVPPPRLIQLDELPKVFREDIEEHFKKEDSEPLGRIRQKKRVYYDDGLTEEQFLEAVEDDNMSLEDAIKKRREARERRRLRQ
TetR-Sth1(301-1097)-Flag Q954A, as in the SAR complex (P32597, form named): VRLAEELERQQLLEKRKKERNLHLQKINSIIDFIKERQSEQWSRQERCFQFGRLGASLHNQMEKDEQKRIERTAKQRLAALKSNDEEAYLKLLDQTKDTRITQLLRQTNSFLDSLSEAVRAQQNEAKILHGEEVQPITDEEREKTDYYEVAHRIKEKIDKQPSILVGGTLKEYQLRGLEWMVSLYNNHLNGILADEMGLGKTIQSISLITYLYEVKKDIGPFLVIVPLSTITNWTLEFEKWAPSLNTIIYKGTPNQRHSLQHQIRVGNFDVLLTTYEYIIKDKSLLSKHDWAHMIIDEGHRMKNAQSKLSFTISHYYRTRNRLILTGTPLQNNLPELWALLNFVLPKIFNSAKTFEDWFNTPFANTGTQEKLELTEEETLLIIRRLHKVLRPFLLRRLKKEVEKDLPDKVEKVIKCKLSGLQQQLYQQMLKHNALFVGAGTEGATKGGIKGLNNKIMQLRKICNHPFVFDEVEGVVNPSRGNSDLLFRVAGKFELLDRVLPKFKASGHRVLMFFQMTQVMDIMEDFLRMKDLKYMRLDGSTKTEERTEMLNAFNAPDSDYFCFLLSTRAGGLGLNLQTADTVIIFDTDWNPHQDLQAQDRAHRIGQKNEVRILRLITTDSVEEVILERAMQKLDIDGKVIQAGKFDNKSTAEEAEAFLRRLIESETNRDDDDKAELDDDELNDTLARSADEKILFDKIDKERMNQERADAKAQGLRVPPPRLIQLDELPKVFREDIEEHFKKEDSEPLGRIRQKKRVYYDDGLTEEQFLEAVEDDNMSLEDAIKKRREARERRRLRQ
TetR-Sth1(301-1097)-Flag R684A, as in the SAR complex (P32597, form named): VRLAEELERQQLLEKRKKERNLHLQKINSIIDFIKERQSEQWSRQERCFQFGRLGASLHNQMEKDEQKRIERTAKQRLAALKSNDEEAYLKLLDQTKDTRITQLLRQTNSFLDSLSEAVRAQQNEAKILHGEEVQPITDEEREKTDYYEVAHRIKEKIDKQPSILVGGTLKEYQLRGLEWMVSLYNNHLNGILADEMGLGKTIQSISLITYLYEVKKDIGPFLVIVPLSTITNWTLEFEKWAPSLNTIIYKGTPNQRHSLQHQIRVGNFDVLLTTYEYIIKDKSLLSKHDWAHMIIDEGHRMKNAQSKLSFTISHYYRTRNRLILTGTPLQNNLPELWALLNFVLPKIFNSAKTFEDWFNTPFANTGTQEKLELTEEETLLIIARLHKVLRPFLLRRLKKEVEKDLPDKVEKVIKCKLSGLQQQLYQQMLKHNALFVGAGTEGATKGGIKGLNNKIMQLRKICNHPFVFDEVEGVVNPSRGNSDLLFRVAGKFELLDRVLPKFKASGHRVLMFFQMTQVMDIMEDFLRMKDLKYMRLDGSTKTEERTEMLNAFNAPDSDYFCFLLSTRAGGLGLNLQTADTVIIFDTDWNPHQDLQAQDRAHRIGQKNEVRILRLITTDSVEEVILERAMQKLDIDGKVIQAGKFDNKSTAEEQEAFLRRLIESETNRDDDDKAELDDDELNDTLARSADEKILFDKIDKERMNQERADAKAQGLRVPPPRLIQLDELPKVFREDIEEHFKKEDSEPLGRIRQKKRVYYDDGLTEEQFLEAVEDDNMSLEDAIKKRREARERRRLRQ
UniProt Q05123: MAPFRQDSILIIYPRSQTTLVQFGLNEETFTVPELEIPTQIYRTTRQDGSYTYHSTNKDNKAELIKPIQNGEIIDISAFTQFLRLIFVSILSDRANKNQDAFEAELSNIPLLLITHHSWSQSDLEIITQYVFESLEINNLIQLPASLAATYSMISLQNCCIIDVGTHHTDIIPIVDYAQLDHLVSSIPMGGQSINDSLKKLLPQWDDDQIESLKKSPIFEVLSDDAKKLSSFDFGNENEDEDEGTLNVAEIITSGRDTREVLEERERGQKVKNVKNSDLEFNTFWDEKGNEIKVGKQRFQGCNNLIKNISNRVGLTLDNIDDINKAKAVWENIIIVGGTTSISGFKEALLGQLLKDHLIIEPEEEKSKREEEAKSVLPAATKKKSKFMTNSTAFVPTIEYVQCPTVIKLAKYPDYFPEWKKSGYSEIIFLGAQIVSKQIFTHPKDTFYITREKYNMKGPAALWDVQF
UniProt Q12406: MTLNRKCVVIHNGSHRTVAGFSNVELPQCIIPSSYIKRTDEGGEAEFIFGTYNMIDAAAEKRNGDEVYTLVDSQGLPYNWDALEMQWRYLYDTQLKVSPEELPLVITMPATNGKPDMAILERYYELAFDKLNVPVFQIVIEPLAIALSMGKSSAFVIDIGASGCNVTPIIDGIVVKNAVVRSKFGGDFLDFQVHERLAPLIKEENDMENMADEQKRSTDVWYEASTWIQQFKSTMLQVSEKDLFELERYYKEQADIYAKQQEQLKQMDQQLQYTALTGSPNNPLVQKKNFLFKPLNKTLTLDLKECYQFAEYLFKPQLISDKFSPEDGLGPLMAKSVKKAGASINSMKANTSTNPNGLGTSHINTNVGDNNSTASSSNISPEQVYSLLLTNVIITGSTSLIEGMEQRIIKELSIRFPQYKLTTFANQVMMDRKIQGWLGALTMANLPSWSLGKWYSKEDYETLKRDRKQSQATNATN

Measured: binding

Arp9 (from UniProt Q05123 1-467)
binds: [1] | [2] | [3] | [4] | [5]

Arp7 (from UniProt Q12406 1-477)
binds: [1] | [2] | [3] | [4] | [5]

B1: Rtt102-S-tag (protein, UniProt P53330 1-157)
chain: MDPQTLITKANKVSYYGNPTSKESWRYDWYQPSKVSSNVQQPQQQLGDMENNLEKYPFRYKTWLRNQEDEKNLQRESCEDILDLKEFDRRILKKSLMTSHTKGDTSKATGAPSANQGDEALSVDDIRGAVGNSEAIPGLSAGVNNDNTKESKDVKMN
binds: [1] | [2] | [3] | [4] | [5]

Source: article PMC7853424
